Earlier results in patent US20260219279A1, “IMPROVED HIGH-THROUGHPUT HYDROGEN-DEUTERIUM EXCHANGE-MASS SPECTROMETRY SYSTEM AND METHOD” (THE BOARD OF REGENTS OF THE UNIVERSITY OF OKLAHOMA, priority 2023, published 2026).
For at least one compound, name, drawing or mass did not settle the structure.

Tested on: Call
Details: previous study; cited from earlier work

Cc1c(C)c2c(c(C)c1O)CCC(C)(COc1ccc(CC3SC(=O)NC3=O)cc1)O2 (stereo not shown) [troglitazone]
deuterium uptake differences between free Call and Call bound with ligand: small deuterium uptake differences
